No constants are given. Whether binding was seen depends on the method and setting. In cells and extracts the contact can be indirect. Some binding calls cover weakened binding; strength is not graded here. Where a sequence is shown, tags or fusion partners need not be part of it.
Target: T1, Rad21-FLAG (cohesin kleisin subunit Rad21) (S. pombe) (UniProt P30776)
T1 sequence: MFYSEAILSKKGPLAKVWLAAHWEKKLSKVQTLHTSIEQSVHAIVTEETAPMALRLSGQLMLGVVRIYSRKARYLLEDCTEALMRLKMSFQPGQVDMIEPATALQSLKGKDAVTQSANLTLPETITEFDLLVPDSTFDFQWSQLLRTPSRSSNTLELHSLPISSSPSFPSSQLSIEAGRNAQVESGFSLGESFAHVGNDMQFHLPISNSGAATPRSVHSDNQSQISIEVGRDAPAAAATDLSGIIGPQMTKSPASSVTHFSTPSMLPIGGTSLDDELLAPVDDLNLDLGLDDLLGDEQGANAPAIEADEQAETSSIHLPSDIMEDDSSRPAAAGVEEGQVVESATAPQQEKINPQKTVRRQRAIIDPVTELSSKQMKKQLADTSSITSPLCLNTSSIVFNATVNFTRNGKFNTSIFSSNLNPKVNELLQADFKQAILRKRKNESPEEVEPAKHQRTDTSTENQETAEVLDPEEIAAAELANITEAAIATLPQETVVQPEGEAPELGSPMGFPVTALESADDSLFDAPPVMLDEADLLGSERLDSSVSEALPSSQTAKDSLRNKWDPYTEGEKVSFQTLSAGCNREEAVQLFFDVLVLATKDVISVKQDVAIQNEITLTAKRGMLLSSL
Assay: co-IP; Rad21-FLAG IP from cdc10-129-arrested cells or cycling cells, western blot with anti-Psm1 and anti-Psm1-S1022p; also in mip1-R401G, mip1-Y533A, pef1Δ, sck1Δ and sck2Δ cells and with rapamycin

binding: binds
B1: Psm1 (Smc1 subunit of fission yeast cohesin) (protein, UniProt O94383 1-1228)
chain: MGRLLRLEVENFKSYRGHQIIGPFEDFTSIIGPNGAGKSNLMDAISFVLGVKSSHLRSTNVKELIYRGKILQRDNTDFTDSSNPTTAYVKLMYELDNGEQREYKRAITPSGATEYKIDEEIVTFSEYCGSLQKENILVRARNFLVFQGDVETIASQSPLELSKLVEQISGSLEYKSEYDKSKDEQDKAVNLSAHSFNKKRGINAELRQYQEQKTEAERYQSQKEKRDSAQLVYLLWKLFHLEKSISSNMAEVTRLKADSIQLIERRDENTKEIEKLKEKEGSIRRNLLAFDRKVRKQEKLIASKRPELISIAEKALESKSNLRKIQRKAAEIEKDYSDQASTLQVLENQLTSLSAAEKEFLKDMQEKEQLKGLRLLPEDKEEYEGLRSEADKLNSNLLFKLQTLNRNIKVTSQSKDSLTSIVGDLESKIKSLHESVSSLDTERADLLAKINEKIESLELEKHDQQKKRLTYSELFHKTQELNEELQSCLQKILEASADRNESKQDAKKREALYALKRIYPEVKGRIIDLCTPTQKKYESAIAAALGKNFDAIVVETQAVAKECIDYIKEQRIGIMTFFPMDTIAASPVNQKFRGTHKGARLAIDVLNFESEYERVMISAVGNTLICDSMTVARDLSYNKRLNAKTVTLEGTVIHKTGLITGGSSNNRSAKHWDDHDFDLLTQTKDRLMHQIGEIEYQKSSCVITESDTVKLHSLESEISLLKDKYTVVSRSVEDKKKEIGHYESLIKEKQPHLSELEMELRNFVKSRDELQIQVEKVEEKIFSGFCKRIGISDIHTYDEIHRTFTQSFTQKQLEFTKQKSLLENRISFEKQRVSDTRLRLERMHKFIEKDQESIDNYEQNREALESEVATAEAELELLKEDFASENSKTEKILLAASEKKLVGKRLVSELTKLSGNITLLESEIDRYVSEWHAILRKCKLEDIDVPLREGSLTSIPIDDVSNSGDITMGEEPSEPVINFEKFGVEVDYDELDEELRNDGSESMASVLQEKLREYSEELDQMSPNLRAIERLETVETRLAKLDEEFAAARKAAKNAKERFNAVKQKRLQKFQAAFSHISEQIDPIYKELTKSPAFPLGGTAYLTLDDLDEPYLGGIKFHAMPPMKRFRDMDQLSGGEKTMAALALLFAIHSYQPSPFFVLDEIDAALDQTNVTKIANYIRQHASSGFQFVVISLKNQLFSKSEALVGIYRDQQENSSRTLSINLEGYVE

Reference: publication PMC13225845
